Results are given in words; binding and its absence hold for the method and conditions named. In cells and extracts the contact can be indirect. A yes stands for co-enrichment or nearness to the bait. Other partners may have been found. Sequences can lack the tags named with a protein. One block for each molecule: values may come before it.
Key:
[1] = target: T1, FLAG-BirA*-MCIDAS (human) (UniProt D6RGH6); test: proximity labelling; BioID-MS: FLAG-BirA* fusions transiently expressed in AD-293 cells with 50 uM biotin; lysis in modified RIPA, benzonase; biotinylated proteins isolated on streptavidin-sepharose, trypsin, mass spectrometry, SAINTexpress; FLAG-BirA* alone as control
T1 sequence: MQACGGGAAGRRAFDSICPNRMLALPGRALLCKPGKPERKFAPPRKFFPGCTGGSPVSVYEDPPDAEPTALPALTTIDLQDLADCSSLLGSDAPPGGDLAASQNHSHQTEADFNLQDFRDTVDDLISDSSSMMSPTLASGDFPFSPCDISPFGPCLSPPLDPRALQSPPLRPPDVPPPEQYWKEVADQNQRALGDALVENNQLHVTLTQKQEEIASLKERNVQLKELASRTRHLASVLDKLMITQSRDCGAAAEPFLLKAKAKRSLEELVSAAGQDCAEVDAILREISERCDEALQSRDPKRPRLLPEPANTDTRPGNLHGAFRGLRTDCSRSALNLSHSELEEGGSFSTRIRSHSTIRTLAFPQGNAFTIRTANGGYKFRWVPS

Sequences of proteins named here, by UniProt entry; tags and fusion partners are left off.
UniProt P46937: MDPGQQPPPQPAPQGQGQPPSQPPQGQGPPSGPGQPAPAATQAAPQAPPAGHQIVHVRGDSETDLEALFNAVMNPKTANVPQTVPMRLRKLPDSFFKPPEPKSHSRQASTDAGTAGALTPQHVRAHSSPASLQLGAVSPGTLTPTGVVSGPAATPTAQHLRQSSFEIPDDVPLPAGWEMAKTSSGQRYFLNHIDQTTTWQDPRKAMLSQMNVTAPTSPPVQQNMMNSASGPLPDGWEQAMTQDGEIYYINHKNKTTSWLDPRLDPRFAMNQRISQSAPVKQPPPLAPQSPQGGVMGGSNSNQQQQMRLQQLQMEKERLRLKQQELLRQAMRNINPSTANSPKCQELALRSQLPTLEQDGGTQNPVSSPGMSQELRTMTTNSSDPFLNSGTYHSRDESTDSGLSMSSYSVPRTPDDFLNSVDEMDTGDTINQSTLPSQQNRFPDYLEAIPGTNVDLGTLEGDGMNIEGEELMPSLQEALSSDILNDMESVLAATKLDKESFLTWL
UniProt Q9H8M2: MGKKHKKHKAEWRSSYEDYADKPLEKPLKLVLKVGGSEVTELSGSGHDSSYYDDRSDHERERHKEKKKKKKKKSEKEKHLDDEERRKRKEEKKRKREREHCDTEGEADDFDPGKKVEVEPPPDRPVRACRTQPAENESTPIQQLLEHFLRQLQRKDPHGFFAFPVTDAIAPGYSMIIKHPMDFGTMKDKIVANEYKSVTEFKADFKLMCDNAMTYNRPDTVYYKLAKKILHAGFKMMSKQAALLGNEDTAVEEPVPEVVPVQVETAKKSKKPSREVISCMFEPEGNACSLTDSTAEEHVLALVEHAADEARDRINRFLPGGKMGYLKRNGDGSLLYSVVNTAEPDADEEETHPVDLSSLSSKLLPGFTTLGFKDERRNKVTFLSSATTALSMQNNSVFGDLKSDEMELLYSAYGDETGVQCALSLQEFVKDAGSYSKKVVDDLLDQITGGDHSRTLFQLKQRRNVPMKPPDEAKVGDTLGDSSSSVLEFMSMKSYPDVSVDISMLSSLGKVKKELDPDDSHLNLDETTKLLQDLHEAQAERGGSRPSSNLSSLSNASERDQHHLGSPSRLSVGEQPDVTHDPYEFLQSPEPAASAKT
UniProt Q92922: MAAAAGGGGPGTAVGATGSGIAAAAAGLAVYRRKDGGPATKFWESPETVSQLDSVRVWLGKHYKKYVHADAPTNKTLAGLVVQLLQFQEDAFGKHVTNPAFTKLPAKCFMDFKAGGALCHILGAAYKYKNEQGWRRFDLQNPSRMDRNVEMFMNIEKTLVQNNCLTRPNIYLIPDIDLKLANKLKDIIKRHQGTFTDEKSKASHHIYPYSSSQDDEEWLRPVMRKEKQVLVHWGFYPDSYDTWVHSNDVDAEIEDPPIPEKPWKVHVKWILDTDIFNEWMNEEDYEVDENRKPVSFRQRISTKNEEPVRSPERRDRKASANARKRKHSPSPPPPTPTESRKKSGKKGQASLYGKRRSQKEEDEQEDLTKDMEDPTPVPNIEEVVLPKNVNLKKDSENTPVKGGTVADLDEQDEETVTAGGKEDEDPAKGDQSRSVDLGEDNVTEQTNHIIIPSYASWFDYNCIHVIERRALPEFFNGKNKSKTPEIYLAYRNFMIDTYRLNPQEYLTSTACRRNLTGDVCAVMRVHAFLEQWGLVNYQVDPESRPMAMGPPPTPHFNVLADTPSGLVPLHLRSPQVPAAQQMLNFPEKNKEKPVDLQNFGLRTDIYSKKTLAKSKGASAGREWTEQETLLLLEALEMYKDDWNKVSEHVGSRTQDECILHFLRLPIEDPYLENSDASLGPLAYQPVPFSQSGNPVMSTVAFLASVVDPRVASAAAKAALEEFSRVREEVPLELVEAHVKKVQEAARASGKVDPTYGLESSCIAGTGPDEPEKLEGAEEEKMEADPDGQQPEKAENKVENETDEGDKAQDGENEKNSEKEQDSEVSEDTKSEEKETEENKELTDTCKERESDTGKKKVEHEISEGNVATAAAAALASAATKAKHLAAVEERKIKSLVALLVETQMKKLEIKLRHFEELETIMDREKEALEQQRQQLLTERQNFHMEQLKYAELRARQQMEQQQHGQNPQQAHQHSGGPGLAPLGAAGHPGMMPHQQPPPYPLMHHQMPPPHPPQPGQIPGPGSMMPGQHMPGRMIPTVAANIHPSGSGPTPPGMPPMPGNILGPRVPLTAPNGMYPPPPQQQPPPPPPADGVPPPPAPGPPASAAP
UniProt Q969G3: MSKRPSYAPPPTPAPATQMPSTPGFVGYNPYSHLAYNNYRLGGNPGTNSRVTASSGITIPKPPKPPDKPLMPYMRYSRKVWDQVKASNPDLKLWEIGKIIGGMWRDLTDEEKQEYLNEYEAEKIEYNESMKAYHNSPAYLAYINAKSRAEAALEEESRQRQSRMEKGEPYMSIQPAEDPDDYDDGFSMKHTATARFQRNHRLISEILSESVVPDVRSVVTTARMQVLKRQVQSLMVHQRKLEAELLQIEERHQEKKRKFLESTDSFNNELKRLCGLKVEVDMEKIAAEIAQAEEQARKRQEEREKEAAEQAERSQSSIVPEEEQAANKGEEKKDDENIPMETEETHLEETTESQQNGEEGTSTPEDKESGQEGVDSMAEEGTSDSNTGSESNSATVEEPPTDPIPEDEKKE

[2] = target: T1, FLAG-BirA*-MCIDAS (human); test: proximity labelling; BioID-AP western in doxycycline-induced DBTRG-05MG cells at Day 3, with or without dBRD9
[3] = target: T1, FLAG-BirA*-MCIDAS (human); test: proximity labelling; small scale BioID-AP followed by western blotting: FLAG-BirA* fusions in transfected AD-293 cells, streptavidin-sepharose purification, blots for endogenous proteins
FLAG-BirA*-GEMC1 (human) [4] = target: T2, FLAG-BirA*-GEMC1 (human) (UniProt A6NCL1); test: as above
T2 sequence: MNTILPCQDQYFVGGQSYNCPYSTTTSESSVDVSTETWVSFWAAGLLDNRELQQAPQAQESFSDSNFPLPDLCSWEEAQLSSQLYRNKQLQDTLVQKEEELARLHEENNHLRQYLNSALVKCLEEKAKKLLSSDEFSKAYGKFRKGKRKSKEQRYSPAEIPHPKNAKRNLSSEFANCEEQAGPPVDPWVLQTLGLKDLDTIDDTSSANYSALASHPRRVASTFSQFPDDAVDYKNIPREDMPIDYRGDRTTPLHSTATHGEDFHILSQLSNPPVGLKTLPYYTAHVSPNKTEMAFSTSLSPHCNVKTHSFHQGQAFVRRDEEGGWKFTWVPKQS

FLAG-BirA*-GEMC1 (human) [5] = target: T2, FLAG-BirA*-GEMC1 (human); test: proximity labelling; BioID-MS: FLAG-BirA* fusions transiently expressed in AD-293 cells with 50 uM biotin; lysis in modified RIPA, benzonase; biotinylated proteins isolated on streptavidin-sepharose, trypsin, mass spectrometry, SAINTexpress; FLAG-BirA* alone as control
[6] = target: T3, FLAG-BirA*-GEMC1 (human), A6NCL1; test: as above; conditions: remark: other sources report otherwise
T3 chain: T2 sequence

Molecule: YAP1 (from UniProt P46937 1-504)
binding (FLAG-BirA*-GEMC1 (human) [5]): binds
binding [1]: binds
binding (FLAG-BirA*-GEMC1 (human) [4]): binds
binding [3]: binds

B1: CDT1, Q9H211 1-546 (protein)
chain: MEQRRVTDFFARRRPGPPRIAPPKLACRTPSPARPALRAPASATSGSRKRARPPAAPGRDQARPPARRRLRLSVDEVSSPSTPEAPDIPACPSPGQKIKKSTPAAGQPPHLTSAQDQDTISELASCLQRARELGARVRALKASAQDAGESCTPEAEGRPEEPCGEKAPAYQRFHALAQPGLPGLVLPYKYQVLAEMFRSMDTIVGMLHNRSETPTFAKVQRGVQDMMRRRFEECNVGQIKTVYPASYRFRQERSVPTFKDGTRRSDYQLTIEPLLEQEADGAAPQLTASRLLQRRQIFSQKLVEHVKEHHKAFLASLSPAMVVPEDQLTRWHPRFNVDEVPDIEPAALPQPPATEKLTTAQEVLARARNLISPRMEKALSQLALRSAAPSSPGSPRPALPATPPATPPAASPSALKGVSQDLLERIRAKEAQKQLAQMTRCPEQEQRLQRLERLPELARVLRSVFVSERKPALSMEVACARMVGSCCTIMSPGEMEKHLLLLSELLPDWLSLHRIRTDTYVKLDKAADLAHITARLAHQTRAEEGL
binding [6]: binds

B2: TP73 (protein, UniProt O15350 1-636)
chain: MAQSTATSPDGGTTFEHLWSSLEPDSTYFDLPQSSRGNNEVVGGTDSSMDVFHLEGMTTSVMAQFNLLSSTMDQMSSRAASASPYTPEHAASVPTHSPYAQPSSTFDTMSPAPVIPSNTDYPGPHHFEVTFQQSSTAKSATWTYSPLLKKLYCQIAKTCPIQIKVSTPPPPGTAIRAMPVYKKAEHVTDVVKRCPNHELGRDFNEGQSAPASHLIRVEGNNLSQYVDDPVTGRQSVVVPYEPPQVGTEFTTILYNFMCNSSCVGGMNRRPILIIITLEMRDGQVLGRRSFEGRICACPGRDRKADEDHYREQQALNESSAKNGAASKRAFKQSPPAVPALGAGVKKRRHGDEDTYYLQVRGRENFEILMKLKESLELMELVPQPLVDSYRQQQQLLQRPSHLQPPSYGPVLSPMNKVHGGMNKLPSVNQLVGQPPPHSSAATPNLGPVGPGMLNNHGHAVPANGEMSSSHSAQSMVSGSHCTPPPPYHADPSLVSFLTGLGCPNCIEYFTSQGLQSIYHLQNLTIEDLGALKIPEQYRMTIWRGLQDLKQGHDYSTAQQLLRSSNAATISIGGSGELQRQRVMEAVHFRVRHTITIPNRGGPGGGPDEWADFGFDLPDCKARKQPIKEEFTEAEIH
binding (FLAG-BirA*-GEMC1 (human) [5]): binds
binding [1]: binds

Results, then the molecule that gave them:

binding [1]: binds
binding [2]: binds
binding [3]: binds
Molecule: BRD9 (from UniProt Q9H8M2 1-597)

binding (FLAG-BirA*-GEMC1 (human) [4]): binds
binding [3]: binds
Molecule: SMARCC1 (BAF155) (from UniProt Q92922 1-1105)

binding (FLAG-BirA*-GEMC1 (human) [4]): binds
binding [3]: binds
Molecule: SMARCE1 (BAF57) (from UniProt Q969G3 1-411)

Reference: publication PMC10023806
